# Laboratory results as given in the supplement of paper PMC12819154, “High-throughput peptide-centric local stability assay extends protein–ligand identification to membrane proteins, tissues and bacteria” (Nature Structural & Molecular Biology, 2025).
# Chains of the proteins cited; added tags and fusions are not shown. Lines headed by an entry give the natural chain unless they say otherwise; changes in a name come on top.
# UniProt Q61598: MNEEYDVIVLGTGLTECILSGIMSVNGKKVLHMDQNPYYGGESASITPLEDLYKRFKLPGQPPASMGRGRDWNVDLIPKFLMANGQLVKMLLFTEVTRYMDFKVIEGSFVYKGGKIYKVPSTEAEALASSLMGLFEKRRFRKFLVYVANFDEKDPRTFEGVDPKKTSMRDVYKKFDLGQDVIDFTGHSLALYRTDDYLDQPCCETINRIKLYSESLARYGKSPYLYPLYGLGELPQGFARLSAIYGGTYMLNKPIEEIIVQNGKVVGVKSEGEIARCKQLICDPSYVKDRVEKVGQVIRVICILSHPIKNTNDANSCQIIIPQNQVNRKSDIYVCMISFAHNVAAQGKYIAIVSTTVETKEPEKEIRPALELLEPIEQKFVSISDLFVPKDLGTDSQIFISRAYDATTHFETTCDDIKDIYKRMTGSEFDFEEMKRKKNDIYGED
# UniProt Q67FY2: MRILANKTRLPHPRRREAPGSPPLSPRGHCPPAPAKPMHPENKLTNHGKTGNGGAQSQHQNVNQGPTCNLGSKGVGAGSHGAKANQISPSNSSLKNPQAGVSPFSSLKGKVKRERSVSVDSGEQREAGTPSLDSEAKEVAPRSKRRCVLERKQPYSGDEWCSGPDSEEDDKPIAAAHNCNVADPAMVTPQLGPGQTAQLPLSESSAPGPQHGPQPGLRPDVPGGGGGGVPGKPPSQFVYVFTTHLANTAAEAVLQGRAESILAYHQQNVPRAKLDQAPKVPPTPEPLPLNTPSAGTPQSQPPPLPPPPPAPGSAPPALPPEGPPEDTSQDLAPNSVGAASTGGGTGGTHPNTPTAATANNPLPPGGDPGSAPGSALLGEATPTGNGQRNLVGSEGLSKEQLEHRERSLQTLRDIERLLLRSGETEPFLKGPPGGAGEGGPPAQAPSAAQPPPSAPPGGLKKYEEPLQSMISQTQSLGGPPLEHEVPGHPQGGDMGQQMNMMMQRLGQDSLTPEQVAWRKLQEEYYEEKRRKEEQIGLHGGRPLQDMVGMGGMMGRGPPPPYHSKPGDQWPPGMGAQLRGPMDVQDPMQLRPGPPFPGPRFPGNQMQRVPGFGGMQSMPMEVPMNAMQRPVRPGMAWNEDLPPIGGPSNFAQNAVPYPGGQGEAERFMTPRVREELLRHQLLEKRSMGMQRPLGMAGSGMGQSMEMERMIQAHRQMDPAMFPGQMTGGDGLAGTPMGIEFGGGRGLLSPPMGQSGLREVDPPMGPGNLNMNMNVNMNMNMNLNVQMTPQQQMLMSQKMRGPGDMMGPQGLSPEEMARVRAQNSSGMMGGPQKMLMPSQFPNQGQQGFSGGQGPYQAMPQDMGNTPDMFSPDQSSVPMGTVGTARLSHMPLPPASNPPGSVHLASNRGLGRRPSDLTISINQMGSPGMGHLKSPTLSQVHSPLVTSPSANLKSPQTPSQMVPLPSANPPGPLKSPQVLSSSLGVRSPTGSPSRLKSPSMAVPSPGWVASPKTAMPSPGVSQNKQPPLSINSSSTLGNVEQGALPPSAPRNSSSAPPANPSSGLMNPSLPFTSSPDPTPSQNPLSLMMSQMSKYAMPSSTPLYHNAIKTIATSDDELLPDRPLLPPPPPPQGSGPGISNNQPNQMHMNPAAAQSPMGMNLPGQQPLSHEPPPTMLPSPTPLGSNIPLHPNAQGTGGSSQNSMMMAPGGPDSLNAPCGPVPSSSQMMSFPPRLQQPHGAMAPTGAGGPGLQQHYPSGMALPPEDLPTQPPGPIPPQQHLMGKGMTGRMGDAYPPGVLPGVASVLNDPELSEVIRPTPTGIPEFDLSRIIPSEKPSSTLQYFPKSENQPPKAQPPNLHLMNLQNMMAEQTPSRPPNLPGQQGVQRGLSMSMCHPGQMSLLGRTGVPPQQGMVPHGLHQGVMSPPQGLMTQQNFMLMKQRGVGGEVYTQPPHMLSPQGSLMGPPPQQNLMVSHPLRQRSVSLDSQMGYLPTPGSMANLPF
# UniProt Q64092, whole entry: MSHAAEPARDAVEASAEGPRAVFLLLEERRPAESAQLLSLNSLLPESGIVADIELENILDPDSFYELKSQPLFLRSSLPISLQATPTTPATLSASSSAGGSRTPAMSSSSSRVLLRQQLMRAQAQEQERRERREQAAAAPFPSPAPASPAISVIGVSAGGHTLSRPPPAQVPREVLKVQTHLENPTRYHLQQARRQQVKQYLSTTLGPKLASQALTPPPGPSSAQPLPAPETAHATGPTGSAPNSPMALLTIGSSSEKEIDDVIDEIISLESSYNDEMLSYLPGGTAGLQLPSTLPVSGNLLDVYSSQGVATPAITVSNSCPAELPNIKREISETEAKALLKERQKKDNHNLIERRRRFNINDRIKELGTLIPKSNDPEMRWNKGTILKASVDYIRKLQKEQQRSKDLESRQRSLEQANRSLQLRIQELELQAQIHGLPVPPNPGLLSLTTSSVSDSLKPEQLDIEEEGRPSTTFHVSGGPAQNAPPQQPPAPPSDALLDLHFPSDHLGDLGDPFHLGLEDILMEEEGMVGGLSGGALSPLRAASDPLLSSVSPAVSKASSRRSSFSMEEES
# UniProt Q6GQT1, whole entry: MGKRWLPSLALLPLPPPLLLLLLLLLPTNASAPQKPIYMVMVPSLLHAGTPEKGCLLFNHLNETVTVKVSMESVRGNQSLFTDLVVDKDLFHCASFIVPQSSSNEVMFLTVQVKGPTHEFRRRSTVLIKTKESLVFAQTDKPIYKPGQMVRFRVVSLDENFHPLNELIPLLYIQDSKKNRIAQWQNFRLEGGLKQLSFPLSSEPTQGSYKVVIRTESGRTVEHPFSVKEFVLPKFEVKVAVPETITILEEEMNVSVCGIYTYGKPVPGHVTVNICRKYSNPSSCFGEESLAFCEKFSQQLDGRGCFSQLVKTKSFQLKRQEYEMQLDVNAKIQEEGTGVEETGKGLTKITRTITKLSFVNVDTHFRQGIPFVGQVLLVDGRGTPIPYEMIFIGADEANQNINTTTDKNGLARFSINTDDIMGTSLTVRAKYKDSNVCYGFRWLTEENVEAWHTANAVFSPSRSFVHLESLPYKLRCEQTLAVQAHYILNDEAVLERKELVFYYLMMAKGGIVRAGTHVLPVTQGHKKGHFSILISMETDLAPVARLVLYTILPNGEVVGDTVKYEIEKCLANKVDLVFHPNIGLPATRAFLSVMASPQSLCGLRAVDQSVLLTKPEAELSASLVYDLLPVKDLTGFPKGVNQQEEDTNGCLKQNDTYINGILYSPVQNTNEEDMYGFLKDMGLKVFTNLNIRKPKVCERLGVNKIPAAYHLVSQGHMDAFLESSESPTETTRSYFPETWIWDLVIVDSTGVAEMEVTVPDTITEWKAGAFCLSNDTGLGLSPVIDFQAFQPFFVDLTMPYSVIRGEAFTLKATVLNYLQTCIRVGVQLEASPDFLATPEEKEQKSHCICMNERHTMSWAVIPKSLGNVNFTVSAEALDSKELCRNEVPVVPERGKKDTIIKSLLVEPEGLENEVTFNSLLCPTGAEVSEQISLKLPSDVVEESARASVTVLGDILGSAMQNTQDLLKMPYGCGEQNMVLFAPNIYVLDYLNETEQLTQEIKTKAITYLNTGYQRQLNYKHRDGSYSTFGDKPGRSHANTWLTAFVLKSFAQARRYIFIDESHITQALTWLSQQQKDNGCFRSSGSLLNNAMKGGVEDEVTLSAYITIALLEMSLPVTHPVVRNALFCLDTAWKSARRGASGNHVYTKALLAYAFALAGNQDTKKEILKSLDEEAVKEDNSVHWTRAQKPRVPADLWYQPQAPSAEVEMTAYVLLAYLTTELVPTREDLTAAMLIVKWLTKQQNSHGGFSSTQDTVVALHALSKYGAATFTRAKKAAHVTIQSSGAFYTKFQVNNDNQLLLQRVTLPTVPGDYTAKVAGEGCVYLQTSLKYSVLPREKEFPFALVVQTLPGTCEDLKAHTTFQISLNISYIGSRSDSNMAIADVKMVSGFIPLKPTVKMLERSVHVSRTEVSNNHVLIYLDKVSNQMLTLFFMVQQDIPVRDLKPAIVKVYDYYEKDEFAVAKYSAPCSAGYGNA
# UniProt Q5SVQ0, whole entry: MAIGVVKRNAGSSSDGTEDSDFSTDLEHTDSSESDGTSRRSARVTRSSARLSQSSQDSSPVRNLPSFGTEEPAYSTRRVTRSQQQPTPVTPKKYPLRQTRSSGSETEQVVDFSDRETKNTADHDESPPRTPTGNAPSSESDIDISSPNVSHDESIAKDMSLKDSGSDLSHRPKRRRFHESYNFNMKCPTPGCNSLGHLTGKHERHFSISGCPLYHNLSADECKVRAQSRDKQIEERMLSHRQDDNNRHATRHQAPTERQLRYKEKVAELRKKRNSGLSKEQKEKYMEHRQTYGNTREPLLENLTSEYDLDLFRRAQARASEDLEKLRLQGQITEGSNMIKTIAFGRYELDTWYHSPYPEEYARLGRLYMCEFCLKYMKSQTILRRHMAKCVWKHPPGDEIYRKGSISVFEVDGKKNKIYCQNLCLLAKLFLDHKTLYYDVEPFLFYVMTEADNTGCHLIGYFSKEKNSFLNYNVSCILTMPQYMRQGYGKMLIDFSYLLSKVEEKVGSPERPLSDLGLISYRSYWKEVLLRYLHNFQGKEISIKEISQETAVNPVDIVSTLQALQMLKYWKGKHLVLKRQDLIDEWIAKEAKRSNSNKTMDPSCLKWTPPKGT
# UniProt Q61009: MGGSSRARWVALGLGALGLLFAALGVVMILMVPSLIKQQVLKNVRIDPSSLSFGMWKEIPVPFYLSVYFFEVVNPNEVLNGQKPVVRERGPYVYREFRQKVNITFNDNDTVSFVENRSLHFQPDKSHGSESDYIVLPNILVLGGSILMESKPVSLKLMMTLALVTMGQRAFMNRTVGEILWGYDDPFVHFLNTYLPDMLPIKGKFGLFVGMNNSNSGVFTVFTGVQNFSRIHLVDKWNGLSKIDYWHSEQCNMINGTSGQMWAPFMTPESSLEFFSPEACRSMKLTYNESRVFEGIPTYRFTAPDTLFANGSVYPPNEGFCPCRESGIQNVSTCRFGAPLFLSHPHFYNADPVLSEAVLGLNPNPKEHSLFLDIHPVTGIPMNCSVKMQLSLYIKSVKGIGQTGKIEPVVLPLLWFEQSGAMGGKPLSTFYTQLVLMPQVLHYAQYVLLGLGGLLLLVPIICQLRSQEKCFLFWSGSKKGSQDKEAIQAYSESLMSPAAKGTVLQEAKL
# UniProt Q64516: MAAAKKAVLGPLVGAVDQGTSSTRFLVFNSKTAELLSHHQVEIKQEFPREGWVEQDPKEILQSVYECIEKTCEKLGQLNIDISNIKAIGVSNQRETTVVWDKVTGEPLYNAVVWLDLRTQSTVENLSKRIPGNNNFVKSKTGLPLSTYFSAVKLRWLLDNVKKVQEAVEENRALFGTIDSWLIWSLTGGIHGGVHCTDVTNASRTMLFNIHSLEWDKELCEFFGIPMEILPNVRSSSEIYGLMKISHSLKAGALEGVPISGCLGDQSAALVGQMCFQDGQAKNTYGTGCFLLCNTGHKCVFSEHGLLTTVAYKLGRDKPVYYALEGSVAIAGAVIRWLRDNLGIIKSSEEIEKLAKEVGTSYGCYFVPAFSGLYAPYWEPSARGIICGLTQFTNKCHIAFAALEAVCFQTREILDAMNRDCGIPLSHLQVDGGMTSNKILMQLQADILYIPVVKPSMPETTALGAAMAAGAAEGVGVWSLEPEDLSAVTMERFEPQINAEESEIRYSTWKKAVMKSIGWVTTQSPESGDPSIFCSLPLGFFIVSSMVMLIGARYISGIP
# UniProt Q61124: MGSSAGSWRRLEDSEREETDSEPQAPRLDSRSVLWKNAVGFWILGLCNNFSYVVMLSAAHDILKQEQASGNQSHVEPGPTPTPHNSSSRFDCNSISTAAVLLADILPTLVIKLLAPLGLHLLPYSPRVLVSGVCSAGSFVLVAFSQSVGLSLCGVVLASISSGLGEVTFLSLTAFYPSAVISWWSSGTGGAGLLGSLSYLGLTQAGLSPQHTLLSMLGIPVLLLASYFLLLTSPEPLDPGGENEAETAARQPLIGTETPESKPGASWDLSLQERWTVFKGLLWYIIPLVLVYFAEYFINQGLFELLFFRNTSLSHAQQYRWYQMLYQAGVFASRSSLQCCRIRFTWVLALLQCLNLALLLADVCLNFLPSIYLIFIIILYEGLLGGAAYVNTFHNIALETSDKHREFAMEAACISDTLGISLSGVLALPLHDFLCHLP
# UniProt Q69ZP3: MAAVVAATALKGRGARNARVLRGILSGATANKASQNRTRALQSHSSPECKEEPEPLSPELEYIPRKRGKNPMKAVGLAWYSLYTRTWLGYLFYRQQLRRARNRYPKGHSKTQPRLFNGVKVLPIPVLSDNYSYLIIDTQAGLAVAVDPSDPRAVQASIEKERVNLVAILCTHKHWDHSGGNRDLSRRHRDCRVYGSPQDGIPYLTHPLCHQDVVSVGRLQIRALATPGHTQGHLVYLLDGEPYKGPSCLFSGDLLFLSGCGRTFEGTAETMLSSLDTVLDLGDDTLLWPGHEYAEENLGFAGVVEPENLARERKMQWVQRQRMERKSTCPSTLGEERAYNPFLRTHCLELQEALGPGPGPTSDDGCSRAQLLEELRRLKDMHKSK
# The other results are listed elsewhere or left out. Most values lie at the level of the controls, where differences are scatter.
# Compound: CN[C@@H]1C[C@H]2O[C@@](C)([C@@H]1OC)n1c3ccccc3c3c4c(c5c6ccccc6n2c5c31)C(=O)NC4 [staurosporine]
# Experiment: log2 fold change of pooled soluble protein (PISA), ligand vs vehicle (log2 ratio); higher = more thermally stabilized
# Settings: ligand concentration: 20 uM; assay format: PISA pool 52.9/55.5/58.6 C
row,Target,log2 fold change of pooled soluble protein
1,UniProt Q61733,0.0765
2,UniProt Q61598,-0.0595
3,UniProt Q67FY2,0.0569
4,UniProt Q64092,-0.0975
5,UniProt Q61187,-0.00458
6,UniProt Q6GQS1,0.123
7,UniProt Q64481,0.149
8,UniProt Q61179,-0.0813
9,UniProt Q61147,-0.0473
10,UniProt Q60936,-0.0709
11,UniProt Q61510,-0.0554
12,UniProt Q61160,-0.372
13,UniProt Q6GQT1,0.167
14,UniProt Q61069,-0.0735
15,UniProt Q62264,-0.24
16,UniProt Q5SVQ0,-0.0961
17,UniProt Q64674,-0.0235
18,UniProt Q60870,0.116
19,UniProt Q64152,-0.168

# No new results follow: an excerpt of the list.
row,Target,log2 fold change of pooled soluble protein
12,UniProt Q61160,-0.372
13,UniProt Q6GQT1,0.167
14,UniProt Q61069,-0.0735
15,UniProt Q62264,-0.24
16,UniProt Q5SVQ0,-0.0961
17,UniProt Q64674,-0.0235
18,UniProt Q60870,0.116
19,UniProt Q64152,-0.168

# (continued)

row,Target,log2 fold change of pooled soluble protein
1,UniProt Q6A098,0.0164
2,UniProt Q61009,-0.243
3,UniProt Q64516,0.0315
4,UniProt Q60847,0.00718
5,UniProt Q61315,-0.165
6,UniProt Q60710,-0.0331
7,UniProt Q60866,-0.087
8,UniProt Q6DFV3,0.0159
9,UniProt Q61699,-0.0413
10,UniProt Q61124,0.436
11,UniProt Q64726,-0.057
12,UniProt Q61548,0.103
13,UniProt Q61425,-0.103
14,UniProt Q640N2,-0.133
15,UniProt Q69ZP3,-0.284
16,UniProt Q6NSQ7,0.123
17,UniProt Q62433,-0.0821
18,UniProt Q64105,-0.0212
